Measured values as given in patent US5990092.
Where cells or extracts were used, other partners may take part. For part of these data: Negatives hold for the conditions tested. For part of these data: Tags and fusion partners may be left off the protein sequences shown.

How the values were obtained:
GATA-6 (Homo sapiens) [1] = target: GATA-6 (Homo sapiens) (UniProt Q92908); experiment: competition with a labelled probe; conditions: molar excess of unlabeled mutant oligo had no effect on complex; protein in a lysate after overexpression; protein details: pCDNA1/Amp expression in COS1 cells; variant of GATA probe
GATA-6 (Homo sapiens) [2] = target: GATA-6 (Homo sapiens) (UniProt Q92908); experiment: EMSA; conditions: protein in a lysate after overexpression; protein details: pCDNA1/Amp expression in COS1 cells; label: 5'-32P
[3] = test system: T1, ΔZF-GATA-6 del244-306 (Homo sapiens); experiment: EMSA; conditions: zinc finger deletion unable to bind; protein in a lysate after overexpression; protein details: pCDNA1/Amp expression in COS1 cells; label: 5'-32P
T1 sequence: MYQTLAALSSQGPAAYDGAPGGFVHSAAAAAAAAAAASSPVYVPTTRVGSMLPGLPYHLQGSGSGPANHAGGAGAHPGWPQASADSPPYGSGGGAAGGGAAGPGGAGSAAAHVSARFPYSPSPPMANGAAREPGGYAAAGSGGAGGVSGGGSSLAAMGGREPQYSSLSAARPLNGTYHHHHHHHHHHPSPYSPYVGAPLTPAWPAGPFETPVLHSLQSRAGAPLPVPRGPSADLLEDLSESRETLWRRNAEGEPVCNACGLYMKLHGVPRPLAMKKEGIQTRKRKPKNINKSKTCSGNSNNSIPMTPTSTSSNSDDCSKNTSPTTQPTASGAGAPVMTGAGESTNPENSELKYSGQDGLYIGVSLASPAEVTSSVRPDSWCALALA

Sequence | binding result (GATA-6 (Homo sapiens) [1]) | binding result (GATA-6 (Homo sapiens) [2]) | binding result [3]
GACCGGGCAACTGCGAAGGATTCCCA (double strand) [GATA mutant] | no binding | – | –
GCCGGGCAACTGATAAGGATTCCCA (double strand) [GATA probe] | – | binds | no binding
